Laboratory results: patent publication US9951049B2, “Pyrazole linked benzimidazole conjugates and a process for preparation thereof” (Council of Scientific & Industrial Reseach, priority 2014, dated 2018)
Some entries share one result that the patent states for a list of compounds.

system: fifty six human tumor cell lines; assay: NCI human tumor cell line screen (48 h, SRB), all cell lines; conditions: against fifty six cell lines in nine cancer cell panels

| Structure (SMILES) | G150 values |
| --- | --- |
| COc1cc(-c2cc(-c3nc4ccccc4[nH]3)[nH]n2)cc(OC)c1OC [6f, 2-(3-(3,4,5-trimethoxyphenyl)-1H-pyrazol-5-yl)-1H-benzo[d]imidazole] | < 10 μm |
| Fc1ccc2[nH]c(-c3cc(-c4ccc5c(c4)OCO5)n[nH]3)nc2c1 [7g, 2-(3-(benzo[d][1,3]dioxol-5-yl)-1H-pyrazol-5-yl)-5-fluoro-1H-benzo[d]imidazole] | < 10 μm |
| COc1ccc2[nH]c(-c3cc(-c4cc(OC)c(OC)c(OC)c4)n[nH]3)nc2c1 [9f, 5-methoxy-2-(3-(3,4,5-trimethoxyphenyl)-1H-pyrazol-5-yl)-1H-benzo[d]imidazole] | < 10 μm |
| c1ccc2[nH]c(-c3cc(-c4ccc5c(c4)OCO5)n[nH]3)nc2c1 [6g, 2-(3-(benzo[d][1,3]dioxol-5-yl)-1H-pyrazol-5-yl)-1H-benzo[d]imidazole] | < 10 μm |
| COc1cc(-c2cc(-c3nc4cc(Cl)ccc4[nH]3)[nH]n2)cc(OC)c1OC [8f, 5-chloro-2-(3-(3,4,5-trimethoxyphenyl)-1H-pyrazol-5-yl)-1H-benzo[d]imidazole] | < 10 μm |
| COc1cc(-c2cc(-c3nc4cc(Cl)c(Cl)cc4[nH]3)[nH]n2)cc(OC)c1OC [10f, 5,6-dichloro-2-(3-(3,4,5-trimethoxyphenyl)-1H-pyrazol-5-yl)-1H-benzo[d]imidazole] | < 10 μm |
